Results from article PMC9262213.
These are yes or no findings as the source states them, for the method shown. Binding seen in cells or lysates may run through a third protein. Some binding calls cover weakened binding; strength is not graded here.

By UniProt entry, the sequences of proteins in these tests, tags left out. Residues count along the entry.
UniProt P61073: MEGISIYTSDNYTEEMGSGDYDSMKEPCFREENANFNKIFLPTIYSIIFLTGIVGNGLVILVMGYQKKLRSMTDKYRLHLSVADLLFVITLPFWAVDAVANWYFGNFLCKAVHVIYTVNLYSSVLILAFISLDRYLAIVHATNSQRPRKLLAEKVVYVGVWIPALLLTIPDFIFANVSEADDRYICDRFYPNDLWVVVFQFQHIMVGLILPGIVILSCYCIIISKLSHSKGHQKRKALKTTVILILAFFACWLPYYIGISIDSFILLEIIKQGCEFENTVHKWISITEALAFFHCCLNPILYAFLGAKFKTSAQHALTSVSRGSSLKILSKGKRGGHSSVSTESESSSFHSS
UniProt Q15116, residues 25-288: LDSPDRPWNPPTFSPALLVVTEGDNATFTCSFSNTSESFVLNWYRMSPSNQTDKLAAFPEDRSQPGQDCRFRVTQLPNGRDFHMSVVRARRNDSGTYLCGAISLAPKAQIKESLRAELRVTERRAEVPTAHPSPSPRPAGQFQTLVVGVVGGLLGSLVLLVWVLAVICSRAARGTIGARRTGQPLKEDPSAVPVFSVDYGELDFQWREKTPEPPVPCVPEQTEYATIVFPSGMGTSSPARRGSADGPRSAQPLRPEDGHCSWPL

How the values were obtained:
[1] = biological target: C-X-C chemokine receptor 4 (CXCR4) (human (endogenous in MIAPaCa-2 and PANC-1)) (UniProt P61073); test: co-IP; endogenous proteins; lysates (Pierce IP lysis buffer, 1 mg total protein, precleared) of serum-starved MIAPaCa-2 and PANC-1 cells pre-treated with solvent or AMD3100 (1 uM, 45 min); IP overnight at 4°C with rabbit polyclonal anti-PD-1 (rabbit IgG isotype as control) or, reciprocally, mouse monoclonal anti-CXCR4; Protein A/G-Agarose Plus; western blot for PD-1 and CXCR4
[2] = biological target: programmed cell death protein-1 (PD-1) (human (endogenous in MIAPaCa-2 and PANC-1)) (UniProt Q15116); test: as above

programmed cell death protein-1 (PD-1) (from UniProt Q15116 25-288) (receptor)
binding [1]: binds

C-X-C chemokine receptor 4 (CXCR4) (from UniProt P61073 1-352)
binding [2]: binds
